For orientation: AC50 means the concentration giving half of the maximal activity seen. A higher AC50 goes with weaker potency.

This assay in a line: qHTS Assay for Lipid Storage Modulators in Drosophila S3 Cells.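 On cell number change: cells counted by Cell Tracker Red CMTPX staining in the red channel.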 The conditions noted are these: BODIPY lipid droplet fluorescence, 18-24 h; for cell number change: measured here: cell count max response, cells fed with added oleic acid. The gist of the method:
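Drosophila S3 cells got compounds at several concentrations plus oleic acid (400 uM solution). Laser-scanning cytometry with 488 nm excitation read lipid droplets at 500-530 nm and cells at 575-640 nm. Percent activity was relative to 20 uM Triacsin C.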
For orientation: Quantitative high-throughput screening tests each substance at several concentrations.

Setting [1] is: measured here: lipid fluorescence (Fed channel) AC50, cells fed with added oleic acid.
Setting [2] is: measured here: cell number channel AC50, cells fed with added oleic acid.

The list shows a part of the results. Further columns of the screen follow, without active or inactive calls. The list favours compounds with an active or inconclusive main result. Words in brackets tell the shape of the fitted curve; partial curves, single points and poor fits give uncertain potencies.

For the molecule `O=c1c2ccccc2oc2nc3n(c(=O)c12)CCCS3`, the cell number change was 0.533%. Moreover, the AC50 under setting [1] is 2.06 µM [rising, full curve].

As for `Cc1ccccc1Nc1nc(N)nc(CSc2nnnn2-c2ccccc2)n1`, the cell number change was -12.2%.

Turning to `O=C(OCc1nc2ccccc2c(=O)[nH]1)c1cccs1`, the cell number change is -7.33%.

As for `COc1ccc(N(Cc2cc3ccc(C)cc3[nH]c2=O)C(=O)C2CCCO2)cc1` (centres undefined), the cell number change was determined as 22%. The AC50 under setting [2] is 0.116 µM [rising, full curve]. Moreover, the AC50 under setting [1] was 1.3 µM [rising, partial curve].

On to `O=C(Cn1ccc(=O)[nH]c1=O)Nc1ccc(C(=O)O)c(O)c1`, for which the cell number change was -5.94%. Besides, under setting [2], the AC50 was 4.61 µM [falling, single point]. The AC50 under setting [1] was 2.06 µM [falling, full curve].

Turning to `Cc1cccc(C)c1OCC(=O)N/N=C/c1ccc2c(c1)OCO2`, the cell number change was -16.6%. In addition, the AC50 under setting [1] was 32.6 µM [falling, single point].

As for `COC(=O)c1cccnc1NC(=S)NNC(=O)c1ccccc1`, the cell number change is -5.7%.

Regarding `Cc1sc(NC(=O)c2ccco2)c(CN2CCN(c3ccc(F)cc3)CC2)c1C`, the cell number change stood at 15%. In addition, the AC50 under setting [1] is 6.51 µM [rising, partial curve, poor fit].

Consider `COc1ccccc1C(=O)Nc1ccc(OCC(=O)N2CC(C)OC(C)C2)cc1` (centres undefined), for which the cell number change stood at 30.1%. Further, the AC50 under setting [2] is 0.116 µM [rising, full curve, poor fit]. The half-maximal activity concentration (AC50) under setting [1] was 18.4 µM [rising, partial curve].

As for `CCc1ccccc1NC(=O)CCN1C(=O)C2CC=CCC2C1=O` (centres undefined), the cell number change came out at 2.06%.

In the case of `C=CCn1c(O)c(N=NC(=S)Nc2ccccc2F)c2ccccc21`, the cell number change is -17.6%.

For `CCn1nc(C(=O)OCC(=O)N(CCC#N)c2ccccc2)c2ccccc2c1=O`, the cell number change was -4.54%. For the same molecule, the half-maximal activity concentration (AC50) under setting [1] is 1.84 µM [falling, partial curve].

Consider `O=C(CN1CCCCCC1)Nc1ccc(Br)cc1[N+](=O)[O-]`, for which the cell number change was -7.92%. Moreover, the AC50 under setting [1] is 29.1 µM [falling, single point].

For `COc1ccc(NC(=O)C2CCN(c3cc(-c4ccccc4)nc4ncnn34)CC2)cc1OC`, the cell number change was -12.9%.

`CC1CN(CCc2ccccc2)c2nc3c(c(=O)[nH]c(=O)n3C)n2C1` (centres undefined): the cell number change stood at 23.1%. The AC50 under setting [2] was 6.51 µM [rising, single point].

Turning to `Nc1c(C(=O)NCc2ccccc2)nnn1Cc1ccccc1`, the cell number change was -17.5%. The AC50 under setting [1] is 0.58 µM [falling, partial curve, poor fit].

Regarding `CCCC1(C(=O)OC)NC(c2ccc(OC)c(OC)c2)C2C(=O)N(c3ccc4c(c3)OCO4)C(=O)C21` (centres undefined), the cell number change came out at 68%. In addition, under setting [2], the AC50 was 7.31 µM [rising, partial curve]. The AC50 under setting [1] is 2.06 µM [rising, partial curve].

Consider `COc1ccc(C(=O)OCC(=O)Nc2cc(C)on2)c(OC)c1OC`, for which the concentration at half-maximal activity (AC50) under setting [1] is 0.731 µM [rising, partial curve, poor fit].

For `COc1ccc(S(=O)(=O)Nc2ccccc2C(=O)N2CCOCC2)cc1F`, the cell number change was -20.9%. Moreover, the AC50 under setting [1] was 23.1 µM [falling, single point].

As for `Cc1c(C)c(C)c(S(=O)(=O)Nc2ccc3[nH]c(=O)[nH]c3c2)c(C)c1C`, the cell number change is 21%. Further, under setting [1], the AC50 was 29.1 µM [falling, single point].

Regarding `O=C(c1ccccc1F)N1CCC(N2CCCCCC2)CC1`, the cell number change is -1.46%. For the same molecule, under setting [1], the AC50 is 18.4 µM [rising, partial curve, poor fit].

Regarding `COc1ccc(C(=O)c2ccc(OC)cc2OC)cc1`, the AC50 runs as follows: under setting [2], 1.84 µM [rising, partial curve]; under setting [1], 2.31 µM [rising, partial curve].

Turning to `Cc1ccc(C(=O)COC(=O)C(C)N2C(=O)C3C4CCC(C4)C3C2=O)cc1` (centres undefined), the AC50 under setting [1] was 32.6 µM [rising, single point].

Consider `C=CCn1c(=N)c(S(=O)(=O)c2ccc(C)c(C)c2)cc2c(=O)n3ccccc3nc21`, for which the cell number change was determined as 32.4%.

As for `O=C(NCCc1ccccc1F)C1CCCN1S(=O)(=O)c1ccc2ccccc2c1` (centres undefined), the cell number change was -24%. Further, under setting [1], the AC50 was 18.4 µM [falling, partial curve].

For the molecule `O=C(Nc1cccc(-c2cccc(F)c2)c1)C1CCN(CC2CCOC2)CC1` (centres undefined), the cell number change came to 53.1%. Under setting [2], the AC50 is 29.1 µM [rising, single point]. Further, the AC50 under setting [1] was 6.51 µM [rising, full curve].

On to `CN1CCN(c2ccc(NC(=O)c3ccc4c(c3)OCO4)cc2)CC1`, for which the cell number change was found to be 3.52%. Further, the AC50 under setting [1] was 0.231 µM [falling, full curve, poor fit].

For `O=C(CSc1nc2ccccc2c(=O)n1CC1CCCO1)NCC1CCCO1` (centres undefined), the cell number change is -24.6%. Also, the AC50 under setting [1] was 32.6 µM [falling, single point].

Turning to `CCOC(=O)C1=C(c2ccccc2)NC(=S)NC1C` (centres undefined), the cell number change is -15.9%.

On to `CCCCn1nc(C(=O)Nc2ccc3c(c2)OCCO3)c2ccccc2c1=O`, for which the cell number change was -24%. Besides, the concentration at half-maximal activity (AC50) under setting [2] is 0.164 µM [falling, full curve, poor fit]. In addition, the AC50 under setting [1] was 0.411 µM [rising, single point].

With `NCCNC(=O)c1c(NC(=O)c2ccccc2)sc2c1CCCC2`, the cell number change is -26%. Moreover, the AC50 under setting [1] is 1.84 µM [rising, partial curve, poor fit].

As to `O=C(N/N=C/c1cccc(F)c1)c1ccc(Cl)cc1`, the cell number change worked out at 10.4%. For the same molecule, under setting [1], the AC50 was 29.1 µM [rising, single point].

Consider `Cc1cc(F)ccc1NC(=O)Cn1c(C)csc1=O`, for which the cell number change was determined as 6.36%.

For the molecule `Cc1cccc(-c2nc(CS(=O)CC(=O)N3CC(C)CC(C)C3)c(C)o2)c1` (centres undefined), the cell number change amounted to 2.64%. The AC50 under setting [2] is 6.51 µM [rising, single point]. For the same molecule, under setting [1], the AC50 is 0.58 µM [rising, single point].

For the molecule `CCOc1ccc(/C(O)=C2/C(=O)C(=O)N(CC3CCCO3)C2c2ccc(C)o2)cc1` (centres undefined), the cell number change was 190%. Besides, the AC50 under setting [2] was 29.1 µM [rising, single point].

Regarding `Cn1c(CSc2ncccn2)nnc1SCC(=O)N1CCCc2ccccc21`, the cell number change came to 2.85%.

On to `COc1cccc(C2CC(c3ccccc3)=NN2S(=O)(=O)c2ccccc2)c1OC` (centres undefined), for which the cell number change was 4.22%. Besides, under setting [1], the AC50 is 3.26 µM [rising, partial curve].

In the case of `COc1ccc(CC(=O)NC(C)CCc2ccccc2)cc1OC` (centres undefined), the cell number change is -12.5%. The half-maximal activity concentration (AC50) under setting [1] is 0.58 µM [rising, single point].

Take `COc1ccc(CNC2CCCc3ccccc32)cc1OC` (centres undefined): the cell number change came out at 21.2%. For the same molecule, the AC50 under setting [1] is 1.64 µM [rising, partial curve, poor fit].

Regarding `Cc1cc(C)nc(Sc2c(C)nn(-c3ccccc3)c2C)n1`, the cell number change was -11.5%.
